Measured data: PubChem BioAssay AID652272 (Drosophila RNAi Screening Center, 2013)
The screen tested about 21,000 reagents; shown is an unselected part of those with a known target gene and a result. Over the whole deposit, 503 (2.4%) are marked active. 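Raw plate light values, not normalised; calls rest on replicate z-scores that were not deposited; hits include reporter decreases as well as increases.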 Not given: the amount of reagent, the time to read-out.

Aim: 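Genome-wide knock-down search for components of Hedgehog signalling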 (primary screen)
Cell system: Drosophila clone 8 (Cl8) cells
Reagents: long dsRNA against Drosophila genes
Read-out: 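Plate reader light from a firefly reporter under a ptc promoter fragment that responds to Hedgehog, with Renilla light as transfection reference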
Scale: firefly Hh reporter signal: higher = more ptc reporter light; Renilla reference signal: higher = more Renilla control light
Hit rule: 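Called a hit if the two-replicate mean z-score lies below -2 or above +3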
Calls: active = hit: reporter lowered or raised; inactive = not a hit

Depletion of CG5068 [DRSC10476] came out at: firefly Hh reporter signal, replicate 1 = 74089; firefly Hh reporter signal, replicate 2 = 66875; Renilla reference signal, replicate 1 = 3082; Renilla reference signal, replicate 2 = 3010; inactive.
Against par-1 [DRSC05792], the values are firefly Hh reporter signal, replicate 1 = 40165; firefly Hh reporter signal, replicate 2 = 86486; Renilla reference signal, replicate 1 = 1963; Renilla reference signal, replicate 2 = 5272; active.
par-1 [DRSC06098] showed firefly Hh reporter signal, replicate 1 = 88726; firefly Hh reporter signal, replicate 2 = 77778; Renilla reference signal, replicate 1 = 1810; Renilla reference signal, replicate 2 = 4964; inactive.
Against par-1 [DRSC06616], the values are firefly Hh reporter signal, replicate 1 = 88493; firefly Hh reporter signal, replicate 2 = 85842; Renilla reference signal, replicate 1 = 4774; Renilla reference signal, replicate 2 = 3846; inactive.
par-1 [DRSC07660] gave firefly Hh reporter signal, replicate 1 = 74653; firefly Hh reporter signal, replicate 2 = 72027; Renilla reference signal, replicate 1 = 2323; Renilla reference signal, replicate 2 = 5560; inactive.
Depletion of par-1 [DRSC07661] gave: firefly Hh reporter signal, replicate 1 = 78976; firefly Hh reporter signal, replicate 2 = 75324; Renilla reference signal, replicate 1 = 2204; Renilla reference signal, replicate 2 = 5379; inactive.
frtz (fritz) [DRSC00512] gave firefly Hh reporter signal, replicate 1 = 1.11e5; firefly Hh reporter signal, replicate 2 = 74681; Renilla reference signal, replicate 1 = 3024; Renilla reference signal, replicate 2 = 1882; inactive.
After knock-down of unc-13 [DRSC17192] the results were firefly Hh reporter signal, replicate 1 = 4.82e5; firefly Hh reporter signal, replicate 2 = 1.61e5; Renilla reference signal, replicate 1 = 23540; Renilla reference signal, replicate 2 = 3187; inactive.
Against unc-13 [DRSC17193], the entry reads firefly Hh reporter signal, replicate 1 = 4.86e5; firefly Hh reporter signal, replicate 2 = 1.65e5; Renilla reference signal, replicate 1 = 26026; Renilla reference signal, replicate 2 = 3920; inactive.
Against unc-13 [DRSC17223], the entry reads firefly Hh reporter signal, replicate 1 = 1.10e5; firefly Hh reporter signal, replicate 2 = 72306; Renilla reference signal, replicate 1 = 2473; Renilla reference signal, replicate 2 = 2643; inactive.
Six4 [DRSC11881] gave firefly Hh reporter signal, replicate 1 = 1.19e5; firefly Hh reporter signal, replicate 2 = 1.35e5; Renilla reference signal, replicate 1 = 4323; Renilla reference signal, replicate 2 = 3926; inactive.
CG14931 [DRSC02413] showed firefly Hh reporter signal, replicate 1 = 1.50e5; firefly Hh reporter signal, replicate 2 = 57724; Renilla reference signal, replicate 1 = 3860; Renilla reference signal, replicate 2 = 4427; inactive.
With knock-down of CG31326 [DRSC16532] the results were firefly Hh reporter signal, replicate 1 = 76433; firefly Hh reporter signal, replicate 2 = 79685; Renilla reference signal, replicate 1 = 1205; Renilla reference signal, replicate 2 = 1682; inactive.
Against Hydr2 (alpha/beta hydrolase2) [DRSC00607], the values are firefly Hh reporter signal, replicate 1 = 99229; firefly Hh reporter signal, replicate 2 = 79800; Renilla reference signal, replicate 1 = 4603; Renilla reference signal, replicate 2 = 3603; inactive.
feo (fascetto) [DRSC19398] scored firefly Hh reporter signal, replicate 1 = 5.56e5; firefly Hh reporter signal, replicate 2 = 78954; Renilla reference signal, replicate 1 = 3334; Renilla reference signal, replicate 2 = 3334; inactive.
CG11068 [DRSC19369] showed firefly Hh reporter signal, replicate 1 = 56321; firefly Hh reporter signal, replicate 2 = 2.00e5; Renilla reference signal, replicate 1 = 1750; Renilla reference signal, replicate 2 = 7833; inactive.
Against Rhp (Rhophilin) [DRSC20279], the values are firefly Hh reporter signal, replicate 1 = 75232; firefly Hh reporter signal, replicate 2 = 1.65e5; Renilla reference signal, replicate 1 = 2227; Renilla reference signal, replicate 2 = 6676; inactive.
pum (pumilio) [DRSC12722] gave firefly Hh reporter signal, replicate 1 = 2.59e5; Renilla reference signal, replicate 1 = 5250; inactive.
After knock-down of pum (pumilio) [DRSC12726], the record shows firefly Hh reporter signal, replicate 1 = 3.99e5; Renilla reference signal, replicate 1 = 7292; inactive.
pum (pumilio) [DRSC17037] scored firefly Hh reporter signal, replicate 1 = 86631; firefly Hh reporter signal, replicate 2 = 5.92e5; firefly Hh reporter signal, replicate 3 = 1.41e5; Renilla reference signal, replicate 1 = 3715; Renilla reference signal, replicate 2 = 3924; inactive.
pum (pumilio) [DRSC17038] gave firefly Hh reporter signal, replicate 1 = 1.04e5; firefly Hh reporter signal, replicate 2 = 1.54e5; Renilla reference signal, replicate 1 = 3929; Renilla reference signal, replicate 2 = 4406; inactive.

Ordered by “firefly Hh reporter signal, replicate 2” (lowest first): 3 of the entries above.
feo (fascetto) [DRSC19398] | firefly Hh reporter signal, replicate 1 = 5.56e5; firefly Hh reporter signal, replicate 2 = 78954; Renilla reference signal, replicate 1 = 3334; Renilla reference signal, replicate 2 = 3334; Outcome = inactive
Rhp (Rhophilin) [DRSC20279] | firefly Hh reporter signal, replicate 1 = 75232; firefly Hh reporter signal, replicate 2 = 1.65e5; Renilla reference signal, replicate 1 = 2227; Renilla reference signal, replicate 2 = 6676; Outcome = inactive
CG11068 [DRSC19369] | firefly Hh reporter signal, replicate 1 = 56321; firefly Hh reporter signal, replicate 2 = 2.00e5; Renilla reference signal, replicate 1 = 1750; Renilla reference signal, replicate 2 = 7833; Outcome = inactive
